Laboratory results: patent publication US20080085879A1, “METHODS OF TREATING ESTROGEN-RESPONSIVE CONDITIONS BY ORPHAN NUCLEAR RECEPTOR ACTIVATION” (University of Pittsburgh - Of the Commonwealth System of …, priority 2006, published 2008)
At least one structure is not confirmed: it was looked up by name or label, or the drawing left a doubt.

Legend:
[1] = system: estrogen sulfotransferase (EST); assay: EST mRNA expression in mouse tissues (Northern blot, real-time PCR) after agonist treatment; assay type: in vivo
Experimental: Transgenic mice, having a mixed background of C57BL/6J and 129/SvImJ, were created expressing activated LXRa in the liver under the control of the fatty acid binding protein (FABP) promoter. (FIG. 1) EST levels in liver cells of the transgenic mice were compared to wild-type mice using Northern blot analysis and real-time PCR, as described in Gong, H. et al. Mol. Endocrinol. 20:279-290 (2006) and Zhou, J. et al. J Biol Chem. 281: 15013-15020 (2006), respectively.
Wild-type mice were treated with LXR agonists TO1317 (T0901317) or 22(R)-hydroxycholesterol (FIG. 1a), and EST levels were compared to DMSO-treated control mice as described above.
LXRα and LXRβ double knockout (LXR DKO) mice were created as described in Peet, D. J. et al., Cell 93:693-704 (1998).

[2] = system: MCF-7/VEGF cells; assay: MCF-7/VEGF breast tumor xenograft in ovariectomized nude mice; assay type: in vivo, mouse; conditions: dexamethasone-treated vs controls; for tumor growth (tumorigenicity of MCF-7/VEGF cells): E2-treated mice
Excerpt: Ovariectomized nude mice were purchased from Taconic (Germantown, N.Y.). ER-positive and estrogen responsive breast cancer MCF-7 cells were used. The MCF-7 cells were MCF-7/VEGF cells that overexpress the vascular endothelial growth factor (VEGF), rather than parent MCF-7 cells. […] Guo, P. et al., Cancer Res. 63:4684-4691 (2003).
MCF-7 breast tumors were established in the mammary fat pads of ovariectomized female nude mice as described previously. Briefly, 1×10^7 of MCF-7/VEGF cells were inoculated into the mammary fat pads of 8-week old ovariectomized female nude mice that were implanted with E2 pellets (0.72 mg/60-day release) or placebo pellets (Innovative Research of America, Sarasota, Fla.). The E2-treated mice were randomly divided into two groups, with one group receiving daily treatment of TO1317 (15 mg/kg by gavage) and the other receiving vehicle. The volumes of the tumors were measured using a caliper every five days. Mice were labeled with BrdU 30 min prior to sacrificing. The serum concentrations of E2 were measured using the ACTIVE® ESTRADIOL EIA kit (Diagnostic Systems Laboratories, Webster, Tex.).
Breast tumors were established as described in Example 4, using MCF-7/VEGF cells.

[3] = system: estrogen sulfotransferase (EST); assay: Sulfotransferase enzymatic assay on liver cytosolic extract with estrone as substrate; assay type: in vivo, mouse; conditions: 20 μg/ml liver cytosolic extract, 1 μM estrone, male and female mice
[4] = system: EST; assay: EST mRNA expression in human MCF7 breast cancer cells (RT-PCR); assay type: cell-based; conditions: cells transfected with empty vector CMX, GR or activated VPGR; compared with DMSO

## C[C@@H]1C[C@H]2[C@@H]3CCC4=CC(=O)C=C[C@]4(C)[C@@]3(F)[C@@H](O)C[C@]2(C)[C@@]1(O)C(=O)CO [dexamethasone]
[1]; GR knockout mice treated with dexamethasone
  EST expression in GR knockout mice: not up-regulated
[1]; testis of male mice
  EST expression in testis: not in testis
[1]; wild-type mice, compared to control (DMSO)
  EST mRNA expression in liver: increased
[2]
  tumor growth (tumorigenicity of MCF-7/VEGF cells): significantly attenuated
[2]; listed as DEX
  tumor growth (tumorigenicity of MCF-7/VEGF cells): Decreased
[2]; E2-treated tumor bearing mice
  serum estradiol levels: significantly attenuated
[3]
  EST enzymatic activity in liver: increased
[4]
  EST mRNA induction in MCF7 breast cancer cells: increased induction
